From the supplement of paper PMC12823440, “Inhibitors supercharge kinase turnover through native proteolytic circuits” (Nature, 2025)
Some of the results follow. Hit calls seldom repeat between salt and free forms of one compound.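 In K562 cells expressing nanoluciferase-fused kinases, luminescence was recorded at 4 h intervals between 2 and 18 h, normalized as percent of control with DMSO at 100% and a positive control at 0%. A significant (2 sigma) signal drop marks a time point as decreased. The authors' rule for a hit is not shown and takes in more than the number of time points.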

These compounds were tested against EGFR_G719S (UniProt P00533) (assay: kinase-Nluc reporter destabilization hit call (1 = scored as downregulated) (binary); higher = compound decreases kinase abundance). Conditions: K562; 2-18 h.

kinase-Nluc reporter destabilization hit call, inactive:
COc1c(O)cc(O)c2c(=O)cc(-c3ccccc3)oc12 [Wogonin] (10 µM) 0
O=C(NC[C@H](O)CO)c1ccncc1Nc1ccc(I)cc1F [Pimasertib] (10 µM) 0
N#Cc1cnc(Nc2cc(NC[C@H]3CNCCO3)c(C(F)(F)F)cn2)cn1 (10 µM) 0
CCNC(=O)Nc1ccc(-c2nc3c(c(N4CCOC[C@@H]4C)n2)CCN(C2COC2)C3)cc1 (2.5 µM) 0
COc1cc2ncnc(Nc3cc(Br)c(O)c(Br)c3)c2cc1OC (2.5 µM) 0
Nc1ccc(-c2nc3ccc(-c4nc5ccc(N)cc5[nH]4)cc3[nH]2)cc1 (10 µM) 0
CCCCC(=O)OCC(=O)[C@]1(O)Cc2c(O)c3c(c(O)c2[C@@H](O[C@H]2C[C@H](NC(=O)C(F)(F)F)[C@H](O)[C@H](C)O2)C1)C(=O)c1c(OC)cccc1C3=O [Valrubicin] (10 µM) 0
CCOC(=O)c1c(Nc2ccccc2Cl)oc(/C=C2\C=Nc3ncccc32)c1O (10 µM) 0
Nc1[nH]nc2nnc(-c3c(-c4ccccc4)nn4ccccc34)cc12 (10 µM) 0
COc1cc2nc(NC3CC3)nc(NC3CCN(C(C)C)CC3)c2cc1OC (10 µM) 0
S=C(NCc1ccc2c(c1)OCO2)N1CCN(c2ncnc3c2oc2ccccc23)CC1 [Amuvatinib] (2.5 µM) 0
CC(=O)O[C@@H]1[C@@H](OC(C)=O)[C@@H](O)[C@H](Oc2c(-c3ccc(O)cc3)oc3cc(O)cc(O)c3c2=O)O[C@H]1C (10 µM) 0
CC1=CC(=O)C(C(C)C)=C/C1=N/OC(=O)c1ccccc1C [Poloxin] (2.5 µM) 0
CO[C@@H]1[C@H](N(C)C(=O)c2ccccc2)C[C@H]2O[C@]1(C)n1c3ccccc3c3c4c(c5c6ccccc6n2c5c31)C(=O)NC4 [Midostaurin] (2.5 µM) 0
Fc1ccc(Cl)cc1-c1nc(Nc2ccncc2)c2nccnc2n1 (10 µM) 0
CN1CCC(Nc2ccc(C(=O)Nc3cc(-c4ccc5c(c4)OCO5)[nH]n3)cc2)CC1 (10 µM) 0
CN1CCC(Nc2nc(Nc3ccc(Oc4ccccc4)cc3)c3c(=O)[nH]cc(Br)c3n2)CC1 (2.5 µM) 0
O=C(COc1ccc(Cl)cc1)NC1CCC(NC(=O)COc2ccc(Cl)cc2)CC1 (stereo not drawn) [ISRIB (trans-isomer)] (10 µM) 0
Cc1ccc(C2CC(=O)NC(SCC(=O)Nc3nccs3)=C2C#N)cc1 (stereo not given) [Necrostatin-34] (10 µM) 0
CCCCNc1ncc(C(=O)NCc2ccc(-n3ccnc3)cc2)c(NC2CCC(O)CC2)n1 (stereo not given) (10 µM) 0
O=C1NC(=O)C(Cc2c[nH]c3c(Cl)cccc23)N1 (stereo not given) [Necroptosis-IN-1] (10 µM) 0
O=C1C=CC2=C3c4cc(O)c(O)cc4CC3(O)COC2=C1O (stereo not given) [Hematein] (10 µM) 0
NC(=O)c1cnc(N[C@@H]2CCCC[C@@H]2N)nc1Nc1cccc(-n2nccn2)c1 (2.5 µM) 0
COc1cc2nc(-c3cc(F)ccc3O)nc(N[C@@H]3CNC[C@H]3C(C)(C)O)c2cc1OC (2.5 µM) 0
CN1CCN(Cc2ccc(-c3cn(C4CCC(O)CC4)c4nc(NCCC5CC5)ncc34)cc2)CC1 (stereo not given) (2.5 µM) 0
O=S(=O)(c1ccc(O)cc1O)N1Cc2cc(O)cc(O)c2C1 (10 µM) 0

Each compound was assayed against EGFR_G719S_T790M (UniProt P00533) in the same assay as above. Conditions: K562; 2-18 h.

kinase-Nluc reporter destabilization hit call, inactive:
CC(C)Cn1ncc2cc(Oc3ccc(F)cc3F)c(C(=O)NCCN(C)C)cc21 [p38α inhibitor 1] (10 µM) 0
CNc1cc2c(Nc3cccc(Br)c3)ncnc2cn1 (10 µM) 0
CN1C(=O)[C@@H](NC(=O)c2cc(Cc3ccccc3)on2)COc2ccccc21 (10 µM) 0
CC(C1CC1)n1cnc2c(NCc3cccc(C(F)(F)F)c3)nc(NCCN(C)C)nc21 (stereo not given) (10 µM) 0
Cc1n[nH]c2ncc(C(=O)N3CCC[C@H]3c3ccc(Cl)cc3)cc12 (10 µM) 0
COc1ccc(Br)c(C=O)c1O [6-Bromo-2-hydroxy-3-methoxybenzaldehyde] (10 µM) 0
Oc1ccc(-c2cnc3ccc(NCc4ccco4)nn23)cc1 [IRAK inhibitor 2] (2.5 µM) 0
C[C@H](Nc1cc2c(-c3ccc4c(c3)OCO4)noc2cn1)c1ccccc1 (10 µM) 0
Nc1ccc(C(=O)Nc2cccc(-c3nc(N4CCOCC4)c4oc5ncccc5c4n3)c2)cn1 (10 µM) 0
CCOC(=O)c1c(N2CCc3ccc(OC)cc3C2)oc(C=C2C=Nc3ncccc32)c1O (10 µM) 0
Cc1ncc(-c2cc(F)c(O)c(F)c2)cc1-c1cc(F)c(O)c(F)c1 (10 µM) 0
N=C(NC(=N)N1CCCC1)Nc1ccc(OC(F)(F)F)cc1 (10 µM) 0
CC1(C)CN(C(=O)c2ccc(-c3cccc4nc(NC(=O)C5CC5)nn34)cc2)C1 [Solcitinib] (10 µM) 0
COc1c(O)cc(O)c2c(=O)cc(-c3ccccc3)oc12 [Wogonin] (10 µM) 0
O=C(NC[C@H](O)CO)c1ccncc1Nc1ccc(I)cc1F [Pimasertib] (10 µM) 0
N#Cc1cnc(Nc2cc(NC[C@H]3CNCCO3)c(C(F)(F)F)cn2)cn1 (10 µM) 0
CCNC(=O)Nc1ccc(-c2nc3c(c(N4CCOC[C@@H]4C)n2)CCN(C2COC2)C3)cc1 (2.5 µM) 0
COc1cc2ncnc(Nc3cc(Br)c(O)c(Br)c3)c2cc1OC (2.5 µM) 0
Nc1ccc(-c2nc3ccc(-c4nc5ccc(N)cc5[nH]4)cc3[nH]2)cc1 (10 µM) 0
CCCCC(=O)OCC(=O)[C@]1(O)Cc2c(O)c3c(c(O)c2[C@@H](O[C@H]2C[C@H](NC(=O)C(F)(F)F)[C@H](O)[C@H](C)O2)C1)C(=O)c1c(OC)cccc1C3=O [Valrubicin] (10 µM) 0
CCOC(=O)c1c(Nc2ccccc2Cl)oc(/C=C2\C=Nc3ncccc32)c1O (10 µM) 0
Nc1[nH]nc2nnc(-c3c(-c4ccccc4)nn4ccccc34)cc12 (10 µM) 0
COc1cc2nc(NC3CC3)nc(NC3CCN(C(C)C)CC3)c2cc1OC (10 µM) 0
S=C(NCc1ccc2c(c1)OCO2)N1CCN(c2ncnc3c2oc2ccccc23)CC1 [Amuvatinib] (2.5 µM) 0
CC(=O)O[C@@H]1[C@@H](OC(C)=O)[C@@H](O)[C@H](Oc2c(-c3ccc(O)cc3)oc3cc(O)cc(O)c3c2=O)O[C@H]1C (10 µM) 0
CC1=CC(=O)C(C(C)C)=C/C1=N/OC(=O)c1ccccc1C [Poloxin] (2.5 µM) 0
CO[C@@H]1[C@H](N(C)C(=O)c2ccccc2)C[C@H]2O[C@]1(C)n1c3ccccc3c3c4c(c5c6ccccc6n2c5c31)C(=O)NC4 [Midostaurin] (2.5 µM) 0
Fc1ccc(Cl)cc1-c1nc(Nc2ccncc2)c2nccnc2n1 (10 µM) 0
CN1CCC(Nc2ccc(C(=O)Nc3cc(-c4ccc5c(c4)OCO5)[nH]n3)cc2)CC1 (10 µM) 0
CN1CCC(Nc2nc(Nc3ccc(Oc4ccccc4)cc3)c3c(=O)[nH]cc(Br)c3n2)CC1 (2.5 µM) 0
O=C(COc1ccc(Cl)cc1)NC1CCC(NC(=O)COc2ccc(Cl)cc2)CC1 (stereo not drawn) [ISRIB (trans-isomer)] (10 µM) 0
Cc1ccc(C2CC(=O)NC(SCC(=O)Nc3nccs3)=C2C#N)cc1 (stereo not given) [Necrostatin-34] (10 µM) 0
CCCCNc1ncc(C(=O)NCc2ccc(-n3ccnc3)cc2)c(NC2CCC(O)CC2)n1 (stereo not given) (10 µM) 0
O=C1NC(=O)C(Cc2c[nH]c3c(Cl)cccc23)N1 (stereo not given) [Necroptosis-IN-1] (10 µM) 0
O=C1C=CC2=C3c4cc(O)c(O)cc4CC3(O)COC2=C1O (stereo not given) [Hematein] (10 µM) 0
NC(=O)c1cnc(N[C@@H]2CCCC[C@@H]2N)nc1Nc1cccc(-n2nccn2)c1 (2.5 µM) 0
COc1cc2nc(-c3cc(F)ccc3O)nc(N[C@@H]3CNC[C@H]3C(C)(C)O)c2cc1OC (2.5 µM) 0
CN1CCN(Cc2ccc(-c3cn(C4CCC(O)CC4)c4nc(NCCC5CC5)ncc34)cc2)CC1 (stereo not given) (2.5 µM) 0
O=S(=O)(c1ccc(O)cc1O)N1Cc2cc(O)cc(O)c2C1 (10 µM) 0
